According to PubChem BioAssay AID504467 (National Center for Advancing Translational Sciences (NCATS), 2011):
Screen size: about 330,000 compounds; about 7,700 (2.3%) were called active. Inconclusive means that the source gave no clear call. Such entries were picked first, then a sample of the others. The call rests on the fitted dose curve; in most records, active means well fitted inhibition curve with a large enough effect; inconclusive means small, poorly fitted or top-dose-only effect, or effect the other way; inactive means flat fitted curve, though single readings scatter. Where the call is inconclusive, the potency comes from a doubtful curve fit.
Potency means the concentration at half of the fitted maximal effect.

Assay: qHTS screen for small molecules that inhibit ELG1-dependent DNA repair in human embryonic kidney (HEK293T) cells expressing luciferase-tagged ELG1; further: nearly all actives have a fitted effect of over 55% in size
Conditions: HEK293T ELG1-luciferase reporter, luminescence, 16 h, DNA damage induced by 5-fluorouridine; series mostly up to 46.1 µM
Summary of the method: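 HEK293T cells expressing luciferase-tagged ELG1 (2,000/well) received 5-Fluorouridine plus compound or DMSO for 16 hr at 37 °C. Luciferase was read by ONE-Glo luminescence after 30 min at room temperature.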
For `CN(C(=O)Cn1cccc1C1=NC(c2ccccc2)CO1)c1ccccc1` (stereo unspecified), the Potency was inconclusive: 9.2 µM [inhibitor, partial curve].
With `S=C1NC2=C(CCCC2=C2SCCCS2)C(c2ccccc2)N1` (stereo unspecified) the Potency was “inactive”.
With `Cc1ccc(-n2c(SCC(=O)NCc3ccco3)nc3nc4c(cc3c2=O)COC(C)(C)C4)cc1` the Potency was inconclusive: 23.1 µM [inhibitor, single point].
For `O=C(O)CCc1nn2c3ccccc3nc2n(Cc2ccccc2)c1=O`, the Potency was inconclusive: 32.6 µM [activator, partial curve, poor fit].
For `Cc1cccnc1NC(=O)c1cccc(S(=O)(=O)N2CCN(c3ccc(F)cc3)CC2)c1`, the Potency was inconclusive: 13 µM [inhibitor, partial curve, poor fit].
With `Cc1ccc(F)c(Cn2cnc3c(cnn3C(C)(C)C)c2=O)c1Cl` the Potency was inconclusive: 29.1 µM [inhibitor, single point].
In the case of `COC(=O)c1c(C)[nH]c(C(=O)OCC(=O)NCC(C)C)c1C`, the Potency is reported as inconclusive: 23.1 µM [inhibitor, partial curve].
For `COc1cc2c(cc1OC)n(CC(=O)NC1CCCCCC1)n1c(C)cc(=O)nc21`, the Potency was “inactive”.
With `C#CCOCCOCCOCCNc1nc(N2CCN(C(=O)[C@H](CCCCN)n3cc([C@@H](N)[C@H](C)CC)nn3)CC2)nc(N2CCN(C(=O)[C@H](CCC(=O)O)n3cc([C@@H](N)CCSC)nn3)CC2)n1` the Potency was “inactive”.
For `COC(=O)C(NC(=O)c1ccccc1C)(Nc1ncc(S(=O)(=O)c2ccc([N+](=O)[O-])cc2)s1)C(F)(F)F` (stereo unspecified), the Potency was inconclusive: 23.1 µM [inhibitor, single point].
With `COc1cc(C(=O)OCC(C)=O)ccc1OCc1c(C)noc1C` the Potency was inconclusive: 4.11 µM [inhibitor, partial curve, poor fit].
In the case of `COC(=O)c1sc2nc(SCC(=O)N(C)c3ccccc3)n(N)c(=O)c2c1C`, the Potency is reported as inconclusive: 2.31 µM [inhibitor, partial curve, poor fit].
With `Cc1ccc(S(=O)(=O)N2CCN(C(=O)C3CCCCC3)CC2)cc1` the Potency was “inactive”.
In the case of `Fc1cccc2sc(N3CCCC3)nc12`, the Potency is reported as inconclusive: 18.3 µM [activator, partial curve].
With `COc1ccc(/C(N)=N/OC(=O)/C=C/c2ccccc2)cc1` the Potency was inconclusive: 10.3 µM [activator, partial curve, poor fit].
In the case of `COc1ccc(NC(=O)COc2ccc(C)nc2[N+](=O)[O-])cc1S(N)(=O)=O`, the Potency is reported as “inactive”.
In the case of `CCN(CC)C(=O)c1ccc(/C=C/c2c[nH]c3ccccc23)[n+](C)c1`, the Potency is reported as inconclusive: 29.1 µM [activator, single point].
With `CCOc1ccc(N/C=C/C(=O)c2ccccc2)c([N+](=O)[O-])c1` the Potency was inconclusive: 0.206 µM [activator, partial curve].
With `O=C(Nc1cccc(F)c1)C1CCCN(S(=O)(=O)c2ccccc2)C1` (stereo unspecified) the Potency was inconclusive: 25.9 µM [inhibitor, single point].
In the case of `CCOC(=O)c1sc(N)c(C#N)c1COC(=O)CNC(=O)c1cc(OC)c(OC)c(OC)c1`, the Potency is reported as inconclusive: 23.1 µM [inhibitor, partial curve].
With `CCCSc1nc(N)nc(-c2cccs2)c1C#N` the Potency was inconclusive: 23.1 µM [activator, partial curve].
With `CCn1c(C(=O)OC)cc2c1ccn2-c1ccc(F)cc1` the Potency was inconclusive: 14.6 µM [activator, partial curve].
With `CCOC(=O)c1ccc(-c2ccc(/C=N/NC(=O)CN(c3ccccc3Br)S(C)(=O)=O)o2)cc1` the Potency was inconclusive: 29.1 µM [inhibitor, single point].
With `COc1ccccc1NC(=O)CCCc1nc(-c2ccc(OC)c(OC)c2)no1` the Potency was inconclusive: 16.4 µM [inhibitor, partial curve, poor fit].
With `CCn1c(=O)c(C(=O)Nc2ccsc2C(=O)OC)c(O)c2ccccc21` the Potency was inconclusive: 14.6 µM [activator, partial curve, poor fit].
For `Cc1cc(Nc2ccc(Br)cc2F)n2nc(C)nc2n1`, the Potency was “inactive”.
With `CC(C)CN(C(=O)CSc1nnc(-c2ccco2)o1)c1c(N)n(Cc2ccccc2)c(=O)[nH]c1=O` the Potency was “inactive”.
For `Cc1nnc2ccc(-c3ccc(NS(=O)(=O)c4ccc(F)cc4F)cc3)nn12`, the Potency was inconclusive: 18.3 µM [activator, partial curve].
With `Cc1ccc(NC(=O)c2scc3c2CCCC3)cc1` the Potency was inconclusive: 1.84 µM [activator, full curve].
For `COc1cc(/C=N/n2c(C3CCCCC3)n[nH]c2=S)ccc1O`, the Potency was inconclusive: 9.2 µM [inhibitor, partial curve].
In the case of `N#C/C(=C\c1cccnc1)c1ccc([N+](=O)[O-])cc1`, the Potency is reported as inconclusive: 29.1 µM [inhibitor, single point].
In the case of `Cn1ccnc1Sc1ccc(/C=N/NC(=O)c2ccccc2O)cc1[N+](=O)[O-]`, the Potency is reported as inconclusive: 29.1 µM [activator, single point].
For `Cc1ccc2c(c1)OC(c1ccc3c(c1)OCCO3)CC2=O` (stereo unspecified), the Potency was inconclusive: 20.6 µM [activator, partial curve].
In the case of `C/C(=C/c1ccccc1)C(=O)N1CCN(c2ccccc2F)CC1`, the Potency is reported as “inactive”.
With `Cn1c(CNc2ccc(Cl)cc2)nnc1SCc1ccccc1` the Potency was “inactive”.
With `NS(=O)(=O)c1cccc(NC(=O)CSc2nnc(-c3ccncc3)n2C2CC2)c1` the Potency was “inactive”.
For `Cc1ccc(NC(=O)CSc2nnc(-c3n[nH]c4ccccc34)n2-c2ccccc2)c(C)c1`, the Potency was active: 23.1 µM.
With `CC1(C)CC(=O)C2=C(C1)OC1OC(=O)CC21C` (stereo unspecified) the Potency was “inactive”.
For `CCN(CC(=O)N1CCCC1)S(=O)(=O)c1ccc(Br)cc1`, the Potency was “inactive”.
With `Cc1ccc(C(=O)CNc2cccc([N+](=O)[O-])c2)cc1` the Potency was inconclusive: 23.1 µM [activator, single point].
For `Cc1cccc(Oc2ccc(NC(=O)c3ccccc3C(=O)O)cc2)c1C`, the Potency was inconclusive: 18.3 µM [inhibitor, single point].
In the case of `CCOC(=O)c1ccc(NCc2nc3ccccc3[nH]2)cc1`, the Potency is reported as inconclusive: 13 µM [activator, partial curve].
With `CCCCC1(C(=O)OC)NC(c2ccc(O)cc2)C2C(=O)N(c3ccccc3)C(=O)C21` (stereo unspecified) the Potency was inconclusive: 2.51 µM [inhibitor, single point].
In the case of `Cc1nnc(SCc2nc3ccccc3s2)n1-c1ccccc1`, the Potency is reported as inconclusive: 20.6 µM [activator, partial curve].
With `O=C(Nc1ccc(N2CCCC2)cc1)c1ccc2ccccc2c1` the Potency was inconclusive: 8.2 µM [activator, partial curve].
With `Cc1ccccc1NC(=S)NCCc1ccccc1` the Potency was “inactive”.
In the case of `C#CCOCCOCCOCCNc1nc(N2CCN(C(=O)[C@H](CCC(=O)O)n3cc(C(N)CO)nn3)CC2)nc(N2CCN(C(=O)[C@H](CCC(=O)O)n3cc(C(N)[C@H](C)CC)nn3)CC2)n1` (stereo partly specified), the Potency is reported as inconclusive: 32.6 µM [activator, partial curve, poor fit].
For `CNC(=O)NC(=O)C(OC(=O)c1cccc(S(=O)(=O)N2CCCCC2)c1)c1ccccc1` (stereo unspecified), the Potency was inconclusive: 16.4 µM [activator, partial curve, poor fit].
In the case of `CCOc1ccc(-n2c(O)c(/C=N/NC(=O)C3COc4ccccc4O3)c3ccccc3c2=O)cc1` (stereo unspecified), the Potency is reported as inconclusive: 0.058 µM [inhibitor, partial curve, poor fit].
With `CCN1CCN(CNC(=O)c2cnccn2)CC1` the Potency was “inactive”.
In the case of `CN(C)S(=O)(=O)N1CCN(S(=O)(=O)c2ccc3ccccc3c2)CC1`, the Potency is reported as inconclusive: 23.1 µM [inhibitor, single point].
With `CCOC(=O)CCc1c(C)nc2cc(-c3ccc(Cl)cc3)[nH]n2c1=O` the Potency was inconclusive: 14.6 µM [activator, single point].
With `O=C(N/N=C\c1ccncc1)c1ccc(Br)s1` the Potency was inconclusive: 20.6 µM [activator, partial curve, poor fit].
In the case of `O=C(Nc1ccc2c(c1)OCO2)c1ccc(Br)c(S(=O)(=O)N2CCCC2)c1`, the Potency is reported as active: 20.6 µM.
For `O=C(Nc1ccc(C(O)(C(F)(F)F)C(F)(F)F)cc1)c1ccc(Cl)c([N+](=O)[O-])c1`, the Potency was inconclusive: 20.6 µM [inhibitor, partial curve].
In the case of `COc1ccc(OCCSc2nc(N)cc(N)n2)cc1`, the Potency is reported as inconclusive: 1.03 µM [activator, full curve].
For `Cc1ccc(NC(=O)CN2C(=O)NC3(CCc4ccccc43)C2=O)cc1Cl` (stereo unspecified), the Potency was “inactive”.
With `Clc1ccc(-c2cn3cc(Cl)ccc3n2)cc1` the Potency was inconclusive: 1.16 µM [activator, partial curve].
With `O=C(Cn1nnc(-c2ccc([N+](=O)[O-])cc2)n1)NNC(=O)c1ccccc1` the Potency was “inactive”.
With `O=C(OCC#CCSc1nnc(-c2ccc(Br)cc2)o1)c1cccs1` the Potency was inconclusive: 29.1 µM [activator, single point].
With `COCCOC(=O)c1c(C)n(C)c2ccc(OC(=O)C3CC3)cc12` the Potency was inconclusive: 16.4 µM [activator, partial curve, poor fit].
In the case of `O=C(NCCCN1CCN(CCCNC(=O)c2ccc(F)cc2)CC1)c1ccc(F)cc1`, the Potency is reported as “inactive”.
With `CCOC(=O)N1CCC(N2CCN(S(=O)(=O)c3ccc4ccccc4c3)CC2)CC1` the Potency was inconclusive: 16.4 µM [inhibitor, partial curve].
For `COc1ccc(CCn2c(-c3ccco3)nc3nc4ccccc4nc32)cc1OC`, the Potency was active: 4.61 µM.
For `O=C(O)C1Cc2ccccc2CN1C(=O)c1ccccc1` (stereo unspecified), the Potency was “inactive”.
With `COc1ccccc1C1CC(=O)Oc2ccc(C(C)(C)C)cc21` (stereo unspecified) the Potency was “inactive”.
